Laboratory results reported in the supplement of paper PMC8728848.
The list shows a part of the results.

Tests used:
Experiment in all cases: glycan array binding signal (z-score within array); higher = stronger binding
Details in all cases: glycan notation: IUPAC condensed, linker removed
Gal3S(b1-4)Glc = biological target: Gal3S(b1-4)Glc
Outline: (§1)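 Glycan array binding is given as a within-array Z-score, which can be read as non-binding when negative. The arrays, 3228 of them, came from the Consortium for Functional Glycomics database and were retained only where the protein sequence was available. Z-scores were averaged across arrays of the same protein sequence at different concentrations or buffers and across linkers.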

Gal3S(b1-4)Glc6S = biological target: Gal3S(b1-4)Glc6S
Outline: as §1

Gal3S(b1-4)GlcNAc = biological target: Gal3S(b1-4)GlcNAc
Outline: as §1

[1] = biological target: Gal3S(b1-4)[Fuc(a1-3)]Glc6S
Outline: as §1

[2] = biological target: Gal3S(b1-4)[Fuc(a1-3)]GlcNAc
Outline: as §1

[3] = biological target: Gal3S(b1-4)[Fuc(a1-3)]GlcNAc6S
Outline: as §1

Gal3S4S(b1-4)GlcNAc = biological target: Gal3S4S(b1-4)GlcNAc
Outline: as §1

Gal3S6S(b1-4)GlcNAc = biological target: Gal3S6S(b1-4)GlcNAc
Outline: as §1

Gal3S6S(b1-4)GlcNAc6S = biological target: Gal3S6S(b1-4)GlcNAc6S
Outline: as §1

Gal4S(b1-4)GlcNAc = biological target: Gal4S(b1-4)GlcNAc
Outline: as §1

Gal4S6S(b1-4)GlcNAc = biological target: Gal4S6S(b1-4)GlcNAc
Outline: as §1

Gal6P(b1-4)GlcNAc = biological target: Gal6P(b1-4)GlcNAc
Outline: as §1

Gal6S(b1-3)GlcNAc = biological target: Gal6S(b1-3)GlcNAc
Outline: as §1

Gal6S(b1-3)GlcNAc6S = biological target: Gal6S(b1-3)GlcNAc6S
Outline: as §1

Gal6S(b1-4)Glc = biological target: Gal6S(b1-4)Glc
Outline: as §1

Gal6S(b1-4)Glc6S = biological target: Gal6S(b1-4)Glc6S
Outline: as §1

Gal6S(b1-4)GlcNAc = biological target: Gal6S(b1-4)GlcNAc
Outline: as §1

Gal6S(b1-4)GlcNAc6S = biological target: Gal6S(b1-4)GlcNAc6S
Outline: as §1

GalNAc(a1-3)Gal = biological target: GalNAc(a1-3)Gal
Outline: as §1

GalNAc(a1-3)GalNAc = biological target: GalNAc(a1-3)GalNAc
Outline: as §1

[4] = biological target: GalNAc(a1-3)GalNAc(b1-3)Gal(a1-4)Gal(b1-4)Glc
Outline: as §1

[5] = biological target: GalNAc(a1-3)GalNAc(b1-3)Gal(a1-4)Gal(b1-4)GlcNAc
Outline: as §1

GalNAc(b1-3)Gal = biological target: GalNAc(b1-3)Gal
Outline: as §1

[6] = biological target: GalNAc(b1-3)Gal(a1-4)Gal(b1-4)GlcNAc
Outline: as §1

[7] = biological target: GalNAc(b1-3)Gal(a1-4)Gal(b1-4)GlcNAc(b1-3)Gal(b1-4)Glc
Outline: as §1

[8] = biological target: GalNAc(b1-3)Gal(a1-6)Gal(b1-4)Glc
Outline: as §1

GalNAc(b1-3)GalNAc = biological target: GalNAc(b1-3)GalNAc
Outline: as §1

GalNAc(b1-3)GlcNAc = biological target: GalNAc(b1-3)GlcNAc
Outline: as §1

GalNAc(b1-4)Gal(b1-4)Glc = biological target: GalNAc(b1-4)Gal(b1-4)Glc
Outline: as §1

GalNAc(b1-4)GlcNAc = biological target: GalNAc(b1-4)GlcNAc
Outline: as §1

[9] = biological target: GalNAc(b1-4)GlcNAc(b1-2)Man
Outline: as §1

[10] = biological target: GalNAc(b1-4)GlcNAc(b1-2)Man(a1-3)[GalNAc(b1-4)GlcNAc(b1-2)Man(a1-6)]Man(b1-4)GlcNAc(b1-4)GlcNAc
Outline: as §1

[11] = biological target: GalNAc(b1-4)GlcNAc(b1-3)GalNAc(b1-4)GlcNAc
Outline: as §1

GalNAc(b1-4)GlcNAc6S = biological target: GalNAc(b1-4)GlcNAc6S
Outline: as §1

GalNAc(b1-6)GalNAc = biological target: GalNAc(b1-6)GalNAc
Outline: as §1

GalNAc3S(b1-4)GlcNAc = biological target: GalNAc3S(b1-4)GlcNAc
Outline: as §1

GalNAc3S(b1-4)GlcNAc3S = biological target: GalNAc3S(b1-4)GlcNAc3S
Outline: as §1

[12] = biological target: GalNAc3S(b1-4)[Fuc(a1-3)]GlcNAc
Outline: as §1

GalNAc4S6S(b1-4)GlcNAc = biological target: GalNAc4S6S(b1-4)GlcNAc
Outline: as §1

GalNAc6S(b1-4)GlcNAc = biological target: GalNAc6S(b1-4)GlcNAc
Outline: as §1

Glc(a1-4)Glc = biological target: Glc(a1-4)Glc
Outline: as §1

[13] = biological target: Glc(a1-4)Glc(a1-4)Glc(a1-4)Glc
Outline: as §1

Glc(a1-6)Glc(a1-6)Glc = biological target: Glc(a1-6)Glc(a1-6)Glc
Outline: as §1

[14] = biological target: Glc(a1-6)Glc(a1-6)Glc(a1-6)Glc
Outline: as §1

Glc(b1-4)Glc = biological target: Glc(b1-4)Glc
Outline: as §1

B1: PX14375D-bvu-513-34-513 (Bacteroides vulgatus) (protein)
chain: TEDTFWKDETDFNLALTSCYTPLKNALNGGYYGTRGVMLRIARADEVDFRNDISDVYTVNRFTNSNTNSLTQGMFYQFYNALYRTNSIMQKLEEKKEQFSTDFQNSVKGECLFIRGFYLFQLAKEFKDAPLRLTASQSPSTFPLAKSSQADIWAQAKEDLKTAASLLPITNKIGKPTQGAAYAALGKIYVYEENWQEAINVLEPLTQNPYTYKLVEDFNWNFDDTHENNAESIFELLIEDVGGTDLWGDGENINSTQSNTRPKEYAAAEVGGWYEANPTQQIMDIFWKEKDKDGNFDYRARCSVAWDYEGCTYYQRPFREVFAQDKWKTYWILKYQNWKTQKDEPAPPKSFINERAIRYADVLLMLAEAYMNKGALDTSIGYINQIRRRANLNDYSGPITKEGVFEDLVHQRAIEFFVEGERFYDLRRWGLLEQTLKTCDDTRYKNYQTGKSDNINKFNYFPIPAKELDTNPLCTPSEGW
glycan array binding signal (z-score) (Gal3S(b1-4)Glc): 1.3 | glycan array binding signal (z-score) (Gal3S(b1-4)Glc6S): 0.049 | glycan array binding signal (z-score) (Gal3S(b1-4)GlcNAc): 0.226 | glycan array binding signal (z-score) [1]: 0.586 | glycan array binding signal (z-score) [2]: 1.28 | glycan array binding signal (z-score) [3]: 0.692 | glycan array binding signal (z-score) (Gal3S4S(b1-4)GlcNAc): -0.493 | glycan array binding signal (z-score) (Gal3S6S(b1-4)GlcNAc): 0.747 | glycan array binding signal (z-score) (Gal3S6S(b1-4)GlcNAc6S): -0.104 | glycan array binding signal (z-score) (Gal4S(b1-4)GlcNAc): -0.038 | glycan array binding signal (z-score) (Gal4S6S(b1-4)GlcNAc): -0.109 | glycan array binding signal (z-score) (Gal6P(b1-4)GlcNAc): 0.035 | glycan array binding signal (z-score) (Gal6S(b1-3)GlcNAc): -1.3 | glycan array binding signal (z-score) (Gal6S(b1-3)GlcNAc6S): 0.17 | glycan array binding signal (z-score) (Gal6S(b1-4)Glc): 0.233 | glycan array binding signal (z-score) (Gal6S(b1-4)Glc6S): 0.348 | glycan array binding signal (z-score) (Gal6S(b1-4)GlcNAc): 0.623 | glycan array binding signal (z-score) (Gal6S(b1-4)GlcNAc6S): -0.403 | glycan array binding signal (z-score) (GalNAc(a1-3)Gal): 0.529 | glycan array binding signal (z-score) (GalNAc(a1-3)GalNAc): 0.031 | glycan array binding signal (z-score) [4]: -1.13 | glycan array binding signal (z-score) [5]: 0.762 | glycan array binding signal (z-score) (GalNAc(b1-3)Gal): -0.306 | glycan array binding signal (z-score) [6]: 0.694 | glycan array binding signal (z-score) [7]: 0.403 | glycan array binding signal (z-score) [8]: -0.002 | glycan array binding signal (z-score) (GalNAc(b1-3)GalNAc): -0.287 | glycan array binding signal (z-score) (GalNAc(b1-3)GlcNAc): -0.773 | glycan array binding signal (z-score) (GalNAc(b1-4)Gal(b1-4)Glc): -0.804 | glycan array binding signal (z-score) (GalNAc(b1-4)GlcNAc): -0.013 | glycan array binding signal (z-score) [9]: 0.399 | glycan array binding signal (z-score) [10]: -0.595 | glycan array binding signal (z-score) [11]: -0.579 | glycan array binding signal (z-score) (GalNAc(b1-4)GlcNAc6S): 0.547 | glycan array binding signal (z-score) (GalNAc(b1-6)GalNAc): 0 | glycan array binding signal (z-score) (GalNAc3S(b1-4)GlcNAc): 0.353 | glycan array binding signal (z-score) (GalNAc3S(b1-4)GlcNAc3S): -0.468 | glycan array binding signal (z-score) [12]: -0.617 | glycan array binding signal (z-score) (GalNAc4S6S(b1-4)GlcNAc): 0.934 | glycan array binding signal (z-score) (GalNAc6S(b1-4)GlcNAc): -0.658 | glycan array binding signal (z-score) (Glc(a1-4)Glc): -0.303 | glycan array binding signal (z-score) [13]: -0.166 | glycan array binding signal (z-score) (Glc(a1-6)Glc(a1-6)Glc): -0.642 | glycan array binding signal (z-score) [14]: 0.354 | glycan array binding signal (z-score) (Glc(b1-4)Glc): 0.371
